# Results taken from publication PMC6070671, “Enhancement of Tumor Cell Death by Combining gef Gene Mediated Therapy and New 1,4-Benzoxazepin-2,6-Dichloropurine Derivatives in Breast Cancer Cells” (Frontiers in Pharmacology, 2018).
# Experiments:
# [1] = system: MCF-7 cancer cell line; test: Sulforhodamine-B cytotoxicity assay, MCF-7; assay type: cell-based, human; details: IC50 non-tumor cell line (MCF-10A)/IC50 MCF-7
# Protocol: (§1) To assess the effect of the different drugs on cell viability we used the sulforhodamine-B colorimetric assay. Cells were resuspended and seeded at a density of 5 × 10^3 cells/well onto 12-well plates kept growing for 24 h. After that, the compounds were added at different concentrations to the cells (0.5, 0.7, 1, 2, 5, and 10 μM) (Figure 1). After 72 h treatment, the medium was discarded and fresh medium and treatment was added. Cells were maintained for 3 days more with the treatment. Finally, they were processed as previously described ([Boulaiz et al., 2003b]) using a Titertek Multiscan apparatus (Flow Laboratories, Irvine, United Kingdom) at 492 nm. We used the cell number for each cell stock before each cell growth experiment to set the linearity of the sulforhodamine-B assay. To calculate the IC50 values we used semilogarithmic dose–response curves to make a linear interpolation. All of the experiments were performed in triplicate wells for each treatment and were repeated at least twice.
# [2] = system: MCF-7TG cancer cell line; test: Sulforhodamine-B cytotoxicity assay, MCF-7TG (gef-expressing); assay type: cell-based, human; details: for Therapeutic index (TI) MCF-7TG: IC50 non-tumor cell line (MCF-10A)/IC50 MCF-7TG; for decrease of the IC50 (improved antiproliferative effect) in presence of the gef gene: MCF-7TG versus MCF-7; for enhanced chemosensitivity in the presence of gef gene: MCF-7TG versus MCF-7 IC50
# Description: The breast cancer cell line MCF-7 was kindly provided by Dr. N. Olea of the Sánchez Mora Tumoural Biology Institute (University Hospital of Granada). The MCF-7TG cell line, a gef-expressing breast cancer cell line controlled by a mouse mammary tumor virus promoter and inducible by dexamethasone (Dex) was derivates from MCF-7 cells following methodology previously described by us ([Boulaiz et al., 2003b]). A selected MCF-7pMAMneo empty vector positive clone was also used. Non-tumoral breast cell line MCF-10A (ATCC: CRL-10317) was provided by the Cell Bank of the University of Granada (Granada, Spain). MCF-7 cells were cultured in a humidified atmosphere at 37°C with 5% CO2 and Dulbecco’s modified Eagle Medium (DMEM) (Gibco, Grand Island, NY, United States) with 10% heat-inactivated fetal bovine serum (FBS) (Gibco), 2.7% sodium bicarbonate, 2% L-glutamine, 1% Hepes buffer, 500 mg/L ampicillin and 40 mg/L gentamicin. MCF-7TG cells were grown in the same medium described above supplemented by 200 μg/ml geneticin G418 and 1μM Dex to induce gef gene expression. MCF-10A grown in DMEM/F12 medium with 5% horse serum (HS), 0.02 μg/ml epithelial growth factor (EGF), 0.5 μg/ml hydrocortisone, 100 ng/ml cholera toxin and 0.01 μg/ml insulin.
# as §1
Compound,Therapeutic index (TI) MCF-7 [1],Therapeutic index (TI) MCF-7TG [2],decrease of the IC50 (improved antiproliferative effect) in presence of the gef gene [2] [%],enhanced chemosensitivity in the presence of gef gene [2] [fold]
O=[N+]([O-])c1ccccc1S(=O)(=O)N1CC(n2cnc3c(Cl)nc(Cl)nc32)OCc2ccccc21 (centres unmarked) [FC-26c],3.53,14.13,75,4
Nc1ccccc1S(=O)(=O)N1CC(n2cnc3c(Cl)nc(Cl)nc32)OCc2ccccc21 (centres unmarked) [FC-29b],0.8,2.12,62.15,2.65
"O=[N+]([O-])c1ccc(S(=O)(=O)N2CC(n3cnc4c(Cl)nc(Cl)nc43)OCc3ccccc32)cc1 (racemic) [Bozepinib, (R,S)-2,6-dichloro-9-[1-(p-nitrobenzenesulfonyl)-1,2,3,5-tetrahydro-4,1-benzoxazepine-3-yl]-9H-purine]",5.14,11.30,54.55,2.2
O=S(=O)(c1ccccc1NO)N1CC(n2cnc3c(Cl)nc(Cl)nc32)OCc2ccccc21 (centres unmarked) [FC-29d],5.24,7.032,–,1.08
COC(CN(c1ccccc1CO)S(=O)(=O)c1ccc([N+](=O)[O-])cc1)n1cnc2c(Cl)nc(Cl)nc21 (centres unmarked) [ACG-812c-F1],1.85,1.99,7.211,1.34
O=[N+]([O-])c1ccccc1S(=O)(=O)N1CC(n2cnc3nc(Cl)nc(Cl)c32)OCc2ccccc21 (centres unmarked) [FC-30b2],1.28,5.5,76.77,4.31
